Where a name gives a salt, the structure may show the parent alone.
Tested on: iPSC-CMs, iPSC-ECs and HUVECs phenotypes
Assay: ToxPi 2.0 integration of POD values and physicochemical descriptors
Set-up: species or system human
Details: for huvec.mtl.18hr ToxPi / huvec.tlps.18hr ToxPi / huvec.tta.18hr ToxPi / huvec.ttl.18hr ToxPi / huvec.cyto.24hr ToxPi / huvec.mito.24hr ToxPi / huvec.mitoint.24hr ToxPi / huvec.nma.24hr ToxPi / huvec.tc.24hrs ToxPi: HUVECs; for huvec.mtl.18hr ToxPi / huvec.tlps.18hr ToxPi / huvec.tta.18hr ToxPi / huvec.ttl.18hr ToxPi / huvec.cyto.24hr ToxPi / huvec.mito.24hr ToxPi / huvec.mitoint.24hr ToxPi / huvec.nma.24hr ToxPi / huvec.tc.24hrs ToxPi / endo.mtl.18hr ToxPi / endo.tlps.18hr ToxPi / endo.tta.18hr ToxPi / endo.ttl.18hr ToxPi / endo.cyto.24hr ToxPi / endo.mito.24hr ToxPi / endo.mitoint.24hr ToxPi / endo.nma.24hr ToxPi / endo.tc.24hrs ToxPi: scaled from POD; for cm.amp.avg.24hrs ToxPi / cm.amp.avg.90min ToxPi / cm.amp.cv.24hrs ToxPi / cm.amp.cv.90min ToxPi / cm.bpm.24hrs ToxPi / cm.bpm.90min ToxPi / cm.cam.24hrs ToxPi / cm.cam.90min ToxPi / cm.decay.rise.24hrs ToxPi / cm.decay.rise.90min ToxPi / cm.mii.24hrs ToxPi / cm.mii.90min ToxPi / cm.mito.24hrs ToxPi / cm.mito.90min ToxPi / cm.spacing.cv.24hrs ToxPi / cm.spacing.cv.90min ToxPi / cm.tc.24hrs ToxPi / cm.tc.90min ToxPi: iPSC-CM; for endo.mtl.18hr ToxPi / endo.tlps.18hr ToxPi / endo.tta.18hr ToxPi / endo.ttl.18hr ToxPi: iPSC-EC tube formation; for endo.cyto.24hr ToxPi / endo.mito.24hr ToxPi / endo.mitoint.24hr ToxPi / endo.nma.24hr ToxPi / endo.tc.24hrs ToxPi: iPSC-EC; for ToxPi_Score_Bioactivity: Biological Activity ToxPi, POD values of iPSC-CM, iPSC-EC and HUVEC phenotypes integrated; for ToxPi_Score_ChemBiol: Chemical-Biological Integration ToxPi, in vitro data plus physicochemical descriptors
Source text: Phenotypic responses were quantitatively assessed using concentration–response modeling as detailed elsewhere ([Sirenko et al. 2017]). Briefly, phenotypic readouts were normalized to vehicle controls and fit to a four-parameter logistic model in R studio software (version 3.1.1; R Development Core Team). Following EPA guidance on dose–response modeling, a cutoff of one standard deviation across means of vehicle control (i.e., 0.5% vol/vol DMSO in cell culture media) wells was applied to determine the point-of-departure (POD) values ([U.S. EPA 2012]). In the absence of a concentration–response, the highest tested concentration (i.e., 100μM ) was assigned as “no observable adverse effect level.” The concentration–response assessment R script, as well as templates for vehicle and concentration–response data, are available as a supplement to Sirenko et al. ([2017]). The ability of physicochemical properties to predict differences in PODs were evaluated by multiregression and mixed-effects modeling using R.
POD values were then integrated using ToxPi 2.0 ([Marvel et al. 2018]) software. In ToxPi, each slice is representative of cell type– and time-point–specific phenotypes. The area of each slice is proportional to the relative value (e.g., bioactivity or physicochemical descriptor value) of the chemical within the data set. ToxPi scores were used to rank PCBs and their metabolites according to their overall bioactivity and to determine variability in total observable biological responses and chemical characteristics for each major metabolite class and chlorination status (mono-, hexa-chlorinated). Additional visualizations such as dumbbell and principal components analysis plots were generated in R Studio (version 1.1.456; R version 3.5.1; R Development Core Team) using the ggplot2 package.

Compound | huvec.mtl.18hr ToxPi | huvec.tlps.18hr ToxPi | huvec.tta.18hr ToxPi | huvec.ttl.18hr ToxPi | huvec.cyto.24hr ToxPi | huvec.mito.24hr ToxPi | huvec.mitoint.24hr ToxPi | huvec.nma.24hr ToxPi | huvec.tc.24hrs ToxPi | cm.amp.avg.24hrs ToxPi | cm.amp.avg.90min ToxPi | cm.amp.cv.24hrs ToxPi | cm.amp.cv.90min ToxPi | cm.bpm.24hrs ToxPi | cm.bpm.90min ToxPi | cm.cam.24hrs ToxPi | cm.cam.90min ToxPi | cm.decay.rise.24hrs ToxPi | cm.decay.rise.90min ToxPi | cm.mii.24hrs ToxPi | further results
Oc1ccc(O)c(-c2ccc(Cl)cc2)c1 [2',5'-DiOH PCB3] | 0.98 | 0.79 | 0.85 | 0.66 | 0.70 | 0.79 | 0.66 | 0.31 | 0.70 | 0.41 | 0.26 | 0.76 | 0.59 | 0.73 | 0.18 | 0.54 | 0.46 | 0.93 | 0.23 | 1.00 | cm.mii.90min ToxPi: 0.95; cm.mito.24hrs ToxPi: 1.00; cm.mito.90min ToxPi: 0.84; cm.spacing.cv.24hrs ToxPi: 1.00; cm.spacing.cv.90min ToxPi: 0.35; cm.tc.24hrs ToxPi: 0.91; cm.tc.90min ToxPi: 0.45; endo.mtl.18hr ToxPi: 0.56; endo.tlps.18hr ToxPi: 0.84; endo.tta.18hr ToxPi: 0.37; endo.ttl.18hr ToxPi: 0.39; endo.cyto.24hr ToxPi: 0.47; endo.mito.24hr ToxPi: 0.47; endo.mitoint.24hr ToxPi: 0.11; endo.nma.24hr ToxPi: 0.35; endo.tc.24hrs ToxPi: 0.50
Oc1ccc(O)c(-c2ccc(Cl)cc2)c1 [2',5'-diOH-PCB 3, 4-Chloro-2′,5′-dihydroxybiphenyl] |  |  |  |  |  |  |  |  |  |  |  |  |  |  |  |  |  |  |  |  | ToxPi_Score_Bioactivity: 0.7927; ToxPi_Score_ChemBiol: 0.6753
Oc1ccccc1-c1ccc(Cl)cc1 [2'-OH PCB3] | 0.00 | 0.98 | 0.00 | 0.00 | 0.31 | 0.38 | 0.21 | 0.53 | 0.31 | 0.24 | 1.00 | 0.06 | 1.00 | 0.17 | 0.60 | 0.12 | 0.46 | 0.67 | 0.97 | 0.72 | cm.mii.90min ToxPi: 0.89; cm.mito.24hrs ToxPi: 0.26; cm.mito.90min ToxPi: 0.36; cm.spacing.cv.24hrs ToxPi: 0.18; cm.spacing.cv.90min ToxPi: 0.33; cm.tc.24hrs ToxPi: 0.24; cm.tc.90min ToxPi: 0.44; endo.mtl.18hr ToxPi: 0.21; endo.tlps.18hr ToxPi: 0.38; endo.tta.18hr ToxPi: 0.11; endo.ttl.18hr ToxPi: 0.14; endo.cyto.24hr ToxPi: 0.14; endo.mito.24hr ToxPi: 0.14; endo.mitoint.24hr ToxPi: 0.00; endo.nma.24hr ToxPi: 0.71; endo.tc.24hrs ToxPi: 0.07
Oc1ccccc1-c1ccc(Cl)cc1 [2'-OH-PCB 3] |  |  |  |  |  |  |  |  |  |  |  |  |  |  |  |  |  |  |  |  | ToxPi_Score_Bioactivity: 0.4642; ToxPi_Score_ChemBiol: 0.3906
O=S(=O)(O)Oc1cc(Cl)ccc1-c1ccccc1 [2-yl PCB 3 sulfate] | 0.50 | 0.19 | 0.00 | 0.00 | 0.00 | 0.00 | 0.00 | 0.00 | 0.00 | 0.00 | 0.00 | 0.00 | 0.00 | 0.00 | 0.55 | 0.00 | 0.00 | 0.00 | 0.00 | 0.00 | cm.mii.90min ToxPi: 0.97; cm.mito.24hrs ToxPi: 0.00; cm.mito.90min ToxPi: 0.00; cm.spacing.cv.24hrs ToxPi: 0.00; cm.spacing.cv.90min ToxPi: 0.00; cm.tc.24hrs ToxPi: 0.00; cm.tc.90min ToxPi: 0.00; endo.mtl.18hr ToxPi: 0.00; endo.tlps.18hr ToxPi: 0.00; endo.tta.18hr ToxPi: 0.00; endo.ttl.18hr ToxPi: 0.00; endo.cyto.24hr ToxPi: 0.00; endo.mito.24hr ToxPi: 0.00; endo.mitoint.24hr ToxPi: 0.00; endo.nma.24hr ToxPi: 0.00; endo.tc.24hrs ToxPi: 0.00
Oc1cccc(-c2ccc(Cl)cc2)c1 [3'-OH PCB3] | 1.00 | 0.87 | 0.66 | 0.52 | 0.47 | 0.55 | 0.17 | 1.00 | 0.47 | 0.45 | 0.69 | 0.38 | 0.27 | 0.46 | 0.88 | 0.26 | 0.76 | 0.82 | 0.48 | 0.39 | cm.mii.90min ToxPi: 0.39; cm.mito.24hrs ToxPi: 0.42; cm.mito.90min ToxPi: 0.77; cm.spacing.cv.24hrs ToxPi: 0.80; cm.spacing.cv.90min ToxPi: 0.08; cm.tc.24hrs ToxPi: 0.43; cm.tc.90min ToxPi: 0.78; endo.mtl.18hr ToxPi: 0.59; endo.tlps.18hr ToxPi: 0.73; endo.tta.18hr ToxPi: 0.48; endo.ttl.18hr ToxPi: 0.49; endo.cyto.24hr ToxPi: 0.14; endo.mito.24hr ToxPi: 0.14; endo.mitoint.24hr ToxPi: 0.00; endo.nma.24hr ToxPi: 0.41; endo.tc.24hrs ToxPi: 0.11
Oc1cccc(-c2ccc(Cl)cc2)c1 [3'-OH-PCB 3] |  |  |  |  |  |  |  |  |  |  |  |  |  |  |  |  |  |  |  |  | ToxPi_Score_Bioactivity: 0.6594; ToxPi_Score_ChemBiol: 0.5365
O=S(=O)(O)Oc1cccc(-c2ccc(Cl)cc2)c1 [3'-PCB 3 sulfate] |  |  |  |  |  |  |  |  |  |  |  |  |  |  |  |  |  |  |  |  | ToxPi_Score_Bioactivity: 0.07444; ToxPi_Score_ChemBiol: 0.1859
